Laboratory results published in paper PMC11806106.
These are yes or no findings as the source states them, for the method shown. Binding seen in cells or lysates may run through a third protein. Some entries that bind do so weakly or less than the wild type.

The chains behind the UniProt entries cited, without tags or fusion partners.
UniProt P33535, whole entry: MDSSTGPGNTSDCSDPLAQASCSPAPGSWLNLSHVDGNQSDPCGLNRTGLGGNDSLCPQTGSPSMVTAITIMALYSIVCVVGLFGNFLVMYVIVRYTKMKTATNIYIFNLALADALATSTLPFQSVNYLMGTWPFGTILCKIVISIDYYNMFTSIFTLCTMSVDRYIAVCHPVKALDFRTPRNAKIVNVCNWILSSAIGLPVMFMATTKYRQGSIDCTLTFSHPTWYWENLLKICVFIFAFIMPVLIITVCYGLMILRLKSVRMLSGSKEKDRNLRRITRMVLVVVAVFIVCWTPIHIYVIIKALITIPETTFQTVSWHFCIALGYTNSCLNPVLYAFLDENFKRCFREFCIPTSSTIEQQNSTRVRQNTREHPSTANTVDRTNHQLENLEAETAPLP
UniProt P32120, whole entry: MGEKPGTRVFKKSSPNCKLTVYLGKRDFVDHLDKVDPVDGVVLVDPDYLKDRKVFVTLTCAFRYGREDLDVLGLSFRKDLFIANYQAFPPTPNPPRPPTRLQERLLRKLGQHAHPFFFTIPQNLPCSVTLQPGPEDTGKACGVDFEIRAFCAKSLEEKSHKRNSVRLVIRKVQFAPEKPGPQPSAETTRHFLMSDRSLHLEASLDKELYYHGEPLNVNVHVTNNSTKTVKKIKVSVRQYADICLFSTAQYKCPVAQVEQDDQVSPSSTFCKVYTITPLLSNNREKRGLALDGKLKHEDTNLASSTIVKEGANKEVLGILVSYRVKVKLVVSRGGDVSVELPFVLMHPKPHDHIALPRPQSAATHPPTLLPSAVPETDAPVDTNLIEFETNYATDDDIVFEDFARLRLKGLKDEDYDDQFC

How the values were obtained:
[1] = molecular target: MOR-nLuc (rat µ opioid receptor, wild type, with C-terminal nLuc) (rat) (UniProt P33535); test: FRET or BRET; BRET in living HEK293T cells transfected with MOR-nLuc, sYFP-Arrestin3 and GRK2; 96-well plate reader, 37°C, external buffer with 1 µM 6H-F-Colenterazine; increasing concentrations of agonist (DAMGO, fentanyl, methadone, Met-enkephalin), then saturating DAMGO
[2] = molecular target: MOR-nLuc (rat µ opioid receptor, wild type, with C-terminal nLuc) (rat) (UniProt P33535); test: FRET or BRET; as a1, with the partial agonist buprenorphine as the agonist
[3] = molecular target: MOR-nLuc (rat µ opioid receptor, wild type, with C-terminal nLuc) (rat) (UniProt P33535); test: FRET or BRET; as a1, with the partial agonist morphine as the agonist

binding [1]: binds | binding [3]: binds weakly
Substance: sYFP-Arrestin3 (bovine Arrestin3 with sYFP2) (from UniProt P32120 1-420)
binding [2]: no binding (condition: with buprenorphine as the agonist)
